Assay [1] concerns the target T1, Flag-HCF-1 (aa1-434), expressed in cells (human) (UniProt P51610).
T1 sequence: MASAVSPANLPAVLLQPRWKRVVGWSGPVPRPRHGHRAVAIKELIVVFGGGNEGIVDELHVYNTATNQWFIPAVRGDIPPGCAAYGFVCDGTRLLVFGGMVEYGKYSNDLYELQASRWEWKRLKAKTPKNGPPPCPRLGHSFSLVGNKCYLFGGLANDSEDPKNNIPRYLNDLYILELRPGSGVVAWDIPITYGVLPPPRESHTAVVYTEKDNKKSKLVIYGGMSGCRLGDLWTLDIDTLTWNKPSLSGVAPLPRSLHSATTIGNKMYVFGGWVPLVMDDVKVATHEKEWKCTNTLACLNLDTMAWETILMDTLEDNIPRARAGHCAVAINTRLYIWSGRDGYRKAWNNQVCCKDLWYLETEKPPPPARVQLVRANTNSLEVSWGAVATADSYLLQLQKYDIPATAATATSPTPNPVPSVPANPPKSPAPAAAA
Nature of the assay: co-IP; GFP-tagged Asxl1 fragments with Flag-HCF-1 (aa1-434).

The target in assay [2] is Flag-tagged (2x) mAsxl1 (pcDNA3, transfected) (mouse) (UniProt P59598). Briefly: co-IP; HEK293T transfected with Flag-Asxl1 and Myc-tagged HCF-1 truncation mutants; IP anti-Flag, WB anti-Myc.
For assay [3], the target named is T2, GST-fused Asxl1 (aa1193-1514) (mouse) (UniProt P59598).
T2 sequence: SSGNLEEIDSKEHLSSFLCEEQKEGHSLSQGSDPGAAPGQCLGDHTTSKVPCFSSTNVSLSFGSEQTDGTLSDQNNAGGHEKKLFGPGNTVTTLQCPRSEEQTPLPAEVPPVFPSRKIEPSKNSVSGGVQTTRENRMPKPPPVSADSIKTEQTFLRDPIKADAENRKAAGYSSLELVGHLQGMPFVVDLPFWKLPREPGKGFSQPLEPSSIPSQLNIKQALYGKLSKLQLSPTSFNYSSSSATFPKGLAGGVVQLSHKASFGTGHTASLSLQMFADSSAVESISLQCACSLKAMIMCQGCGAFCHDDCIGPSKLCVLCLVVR
Briefly: pull-down; 2 ug of GST-Asxl1 (aa1193-1514) (or GST) incubated with 10 uL of in vitro translated Flag-HCF-1 (aa1-434); WB anti-Flag M2; only the target purified.

These are yes or no findings as the source states them, for the method shown. Binding seen in cells or lysates may run through a third protein. Some results given as binding are weak or reduced against the parent protein; the word gives no strength. Sequences can lack the tags named with a protein.

B1: GFP-tagged Asxl1 (aa1193-1514) (domain or fragment, UniProt P59598 1193-1514)
chain: SSGNLEEIDSKEHLSSFLCEEQKEGHSLSQGSDPGAAPGQCLGDHTTSKVPCFSSTNVSLSFGSEQTDGTLSDQNNAGGHEKKLFGPGNTVTTLQCPRSEEQTPLPAEVPPVFPSRKIEPSKNSVSGGVQTTRENRMPKPPPVSADSIKTEQTFLRDPIKADAENRKAAGYSSLELVGHLQGMPFVVDLPFWKLPREPGKGFSQPLEPSSIPSQLNIKQALYGKLSKLQLSPTSFNYSSSSATFPKGLAGGVVQLSHKASFGTGHTASLSLQMFADSSAVESISLQCACSLKAMIMCQGCGAFCHDDCIGPSKLCVLCLVVR
As to B1, the binding entry in assay [1] was “binds”.

B2: Myc-tagged hHCF-1 (aa1-434) (domain or fragment, UniProt P51610 1-434)
chain: MASAVSPANLPAVLLQPRWKRVVGWSGPVPRPRHGHRAVAIKELIVVFGGGNEGIVDELHVYNTATNQWFIPAVRGDIPPGCAAYGFVCDGTRLLVFGGMVEYGKYSNDLYELQASRWEWKRLKAKTPKNGPPPCPRLGHSFSLVGNKCYLFGGLANDSEDPKNNIPRYLNDLYILELRPGSGVVAWDIPITYGVLPPPRESHTAVVYTEKDNKKSKLVIYGGMSGCRLGDLWTLDIDTLTWNKPSLSGVAPLPRSLHSATTIGNKMYVFGGWVPLVMDDVKVATHEKEWKCTNTLACLNLDTMAWETILMDTLEDNIPRARAGHCAVAINTRLYIWSGRDGYRKAWNNQVCCKDLWYLETEKPPPPARVQLVRANTNSLEVSWGAVATADSYLLQLQKYDIPATAATATSPTPNPVPSVPANPPKSPAPAAAA
With B2, the binding entry in assay [2] was “binds”.

B3: Flag-HCF-1 (aa1-434), in vitro translated (domain or fragment, UniProt P51610 1-434)
chain: MASAVSPANLPAVLLQPRWKRVVGWSGPVPRPRHGHRAVAIKELIVVFGGGNEGIVDELHVYNTATNQWFIPAVRGDIPPGCAAYGFVCDGTRLLVFGGMVEYGKYSNDLYELQASRWEWKRLKAKTPKNGPPPCPRLGHSFSLVGNKCYLFGGLANDSEDPKNNIPRYLNDLYILELRPGSGVVAWDIPITYGVLPPPRESHTAVVYTEKDNKKSKLVIYGGMSGCRLGDLWTLDIDTLTWNKPSLSGVAPLPRSLHSATTIGNKMYVFGGWVPLVMDDVKVATHEKEWKCTNTLACLNLDTMAWETILMDTLEDNIPRARAGHCAVAINTRLYIWSGRDGYRKAWNNQVCCKDLWYLETEKPPPPARVQLVRANTNSLEVSWGAVATADSYLLQLQKYDIPATAATATSPTPNPVPSVPANPPKSPAPAAAA
Turning to B3, in assay [3], the binding result is “binds”.

For the origin of these results see paper PMC6215009.
